Experimental data reported in patent publication US20050118310A1, “Formulations of compounds derived from natural sources and their use with irradiation for food preservation” (priority 2001, published 2005).

Assay: Organoleptic acceptability of treated meat

With `O=C/C=C/c1ccccc1` [Trans-cinnamaldehyde, trans-cinnamaldehyde] as the compound, how does the smell and taste (trans-cinnamaldehyde […] on the chicken breast) read?
The smell and taste was “acceptable”.

What about the “effect on the organoleptic qualities of ground beef” value (trans-cinnamaldehyde […], preliminary experiments) of the same compound?
Its value is “did not affect the organoleptic qualities”.
